Experimental data published in paper PMC8136771.
The exact form of at least one protein or probe is not confirmed. Negatives hold for the conditions tested. For part of these data: At least one verdict was read from the data and is not stated in words by the source. For part of these data: Tags and fusion partners may be left off the protein sequences shown.

Chains of the proteins cited; added tags and fusions are not shown. Lines headed by an entry give the natural chain unless they say otherwise; changes in a name come on top. Chains listed by the source or under a name are the forms on record and can include a tag or linker.
UniProt Q9H974: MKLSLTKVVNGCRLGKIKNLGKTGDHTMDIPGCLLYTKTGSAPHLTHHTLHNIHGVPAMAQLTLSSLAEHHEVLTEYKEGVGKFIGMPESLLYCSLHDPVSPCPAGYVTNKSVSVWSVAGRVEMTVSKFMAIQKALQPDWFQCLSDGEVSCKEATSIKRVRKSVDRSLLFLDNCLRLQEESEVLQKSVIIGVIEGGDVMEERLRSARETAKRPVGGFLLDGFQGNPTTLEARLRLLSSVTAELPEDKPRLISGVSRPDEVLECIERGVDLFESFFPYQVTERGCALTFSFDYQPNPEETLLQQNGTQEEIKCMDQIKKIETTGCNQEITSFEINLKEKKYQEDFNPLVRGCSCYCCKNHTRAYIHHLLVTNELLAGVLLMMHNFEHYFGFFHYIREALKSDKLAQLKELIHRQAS
His-hQTRT1 (catalytic subunit of human TGT) + StrepII-hQTRT2 (noncatalytic subunit), one chain, as listed by the source: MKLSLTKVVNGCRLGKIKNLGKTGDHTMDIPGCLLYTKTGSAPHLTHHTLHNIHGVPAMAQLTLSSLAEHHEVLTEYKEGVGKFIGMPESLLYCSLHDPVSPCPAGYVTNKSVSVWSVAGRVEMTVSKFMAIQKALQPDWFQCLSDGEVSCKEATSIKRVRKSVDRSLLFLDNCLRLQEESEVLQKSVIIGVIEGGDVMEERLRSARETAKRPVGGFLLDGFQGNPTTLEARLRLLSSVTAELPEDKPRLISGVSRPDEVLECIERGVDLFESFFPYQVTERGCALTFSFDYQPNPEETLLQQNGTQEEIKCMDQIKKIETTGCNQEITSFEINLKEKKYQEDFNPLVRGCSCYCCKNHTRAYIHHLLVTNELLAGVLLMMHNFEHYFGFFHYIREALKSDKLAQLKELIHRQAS

How the values were obtained:
Assay in all cases: denaturing EMSA of covalent intermediate
[1] = target: T1, His-hQTRT1 (catalytic subunit of human TGT) (human) (UniProt Q9BXR0); conditions: 9-deazaguanine, without QTRT2; RBT buffer: 50 mM Tris-HCl pH 7.5, 20 mM NaCl, 5 mM MgCl2, 2 mM DTT, 37 C, 1-1.5 h, with 9-deazaguanine (25-50 uM); capture-release with poly(U) and ArgSL competitors; recombinant protein; protein details: N-terminal His
T1 sequence (looked up, limits assumed): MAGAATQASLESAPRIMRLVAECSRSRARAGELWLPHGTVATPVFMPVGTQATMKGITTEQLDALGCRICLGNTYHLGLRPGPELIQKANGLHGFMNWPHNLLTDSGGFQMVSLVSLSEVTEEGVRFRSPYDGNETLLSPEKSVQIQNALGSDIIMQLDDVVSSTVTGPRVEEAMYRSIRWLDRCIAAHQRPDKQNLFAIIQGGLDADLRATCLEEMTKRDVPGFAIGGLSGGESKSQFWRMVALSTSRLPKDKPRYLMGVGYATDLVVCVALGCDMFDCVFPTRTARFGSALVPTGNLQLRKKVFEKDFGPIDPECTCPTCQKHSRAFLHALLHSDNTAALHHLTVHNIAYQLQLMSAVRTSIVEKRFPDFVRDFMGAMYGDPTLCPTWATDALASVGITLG

[2] = test system: His-hQTRT1 (catalytic subunit of human TGT) + StrepII-hQTRT2 (noncatalytic subunit); conditions: without 9-deazaguanine (covalent complex only); RBT buffer: 50 mM Tris-HCl pH 7.5, 20 mM NaCl, 5 mM MgCl2, 2 mM DTT, 37 C, 1-1.5 h, with 9-deazaguanine (25-50 uM); capture-release with poly(U) and ArgSL competitors; recombinant protein; protein details: N-terminal His,N-terminal StrepII-SUMO
[3] = target: StrepII-hQTRT2 (noncatalytic subunit) (human) (UniProt Q9H974); conditions: 9-deazaguanine, without QTRT1; RBT buffer: 50 mM Tris-HCl pH 7.5, 20 mM NaCl, 5 mM MgCl2, 2 mM DTT, 37 C, 1-1.5 h, with 9-deazaguanine (25-50 uM); capture-release with poly(U) and ArgSL competitors; recombinant protein; protein details: N-terminal StrepII-SUMO

Measured: binding result

CCCCGCCUGUCACGCGGGA [Aspartyl anticodon stem loop (AspSL)]
no binding: all assays above
